Measurements taken from paper PMC11794699.
These are yes or no findings as the source states them, for the method shown. Binding seen in cells or lysates may run through a third protein. Some entries that bind do so weakly or less than the wild type.

Sequences of proteins named here, by UniProt entry; tags and fusion partners are left off. Residues count along the entry.
UniProt Q9Y219, residues 24-1238: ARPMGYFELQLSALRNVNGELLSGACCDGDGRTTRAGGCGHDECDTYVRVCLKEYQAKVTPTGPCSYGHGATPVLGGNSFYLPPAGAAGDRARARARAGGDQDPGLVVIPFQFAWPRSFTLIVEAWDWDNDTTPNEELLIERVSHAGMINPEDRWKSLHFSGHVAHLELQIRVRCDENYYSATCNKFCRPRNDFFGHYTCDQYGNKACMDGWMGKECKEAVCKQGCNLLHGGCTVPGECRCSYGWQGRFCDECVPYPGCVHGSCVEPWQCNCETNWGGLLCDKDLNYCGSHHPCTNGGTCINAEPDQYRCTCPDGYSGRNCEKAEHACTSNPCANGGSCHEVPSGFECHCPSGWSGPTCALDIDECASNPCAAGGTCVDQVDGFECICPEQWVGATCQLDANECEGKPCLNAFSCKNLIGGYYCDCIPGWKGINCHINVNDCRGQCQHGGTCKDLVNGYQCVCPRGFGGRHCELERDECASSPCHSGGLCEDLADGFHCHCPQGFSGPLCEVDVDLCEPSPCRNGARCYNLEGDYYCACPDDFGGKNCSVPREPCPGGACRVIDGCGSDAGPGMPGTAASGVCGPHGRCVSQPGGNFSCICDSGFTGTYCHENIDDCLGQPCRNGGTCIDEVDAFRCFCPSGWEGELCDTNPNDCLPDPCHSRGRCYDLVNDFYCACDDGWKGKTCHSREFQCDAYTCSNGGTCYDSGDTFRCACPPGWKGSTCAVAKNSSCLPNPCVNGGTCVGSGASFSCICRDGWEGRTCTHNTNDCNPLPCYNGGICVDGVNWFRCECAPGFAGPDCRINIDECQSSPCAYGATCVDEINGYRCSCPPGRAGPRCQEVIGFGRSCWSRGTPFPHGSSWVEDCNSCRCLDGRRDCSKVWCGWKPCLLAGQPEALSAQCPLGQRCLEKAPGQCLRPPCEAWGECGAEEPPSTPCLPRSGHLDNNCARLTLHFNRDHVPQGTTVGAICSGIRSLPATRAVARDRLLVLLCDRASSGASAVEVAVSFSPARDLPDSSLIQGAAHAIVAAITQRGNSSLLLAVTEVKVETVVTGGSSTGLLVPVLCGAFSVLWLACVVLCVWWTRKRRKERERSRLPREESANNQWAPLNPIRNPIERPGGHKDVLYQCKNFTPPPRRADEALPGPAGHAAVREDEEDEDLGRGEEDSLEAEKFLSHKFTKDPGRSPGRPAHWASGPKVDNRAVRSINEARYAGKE
UniProt O00548, residues 18-723: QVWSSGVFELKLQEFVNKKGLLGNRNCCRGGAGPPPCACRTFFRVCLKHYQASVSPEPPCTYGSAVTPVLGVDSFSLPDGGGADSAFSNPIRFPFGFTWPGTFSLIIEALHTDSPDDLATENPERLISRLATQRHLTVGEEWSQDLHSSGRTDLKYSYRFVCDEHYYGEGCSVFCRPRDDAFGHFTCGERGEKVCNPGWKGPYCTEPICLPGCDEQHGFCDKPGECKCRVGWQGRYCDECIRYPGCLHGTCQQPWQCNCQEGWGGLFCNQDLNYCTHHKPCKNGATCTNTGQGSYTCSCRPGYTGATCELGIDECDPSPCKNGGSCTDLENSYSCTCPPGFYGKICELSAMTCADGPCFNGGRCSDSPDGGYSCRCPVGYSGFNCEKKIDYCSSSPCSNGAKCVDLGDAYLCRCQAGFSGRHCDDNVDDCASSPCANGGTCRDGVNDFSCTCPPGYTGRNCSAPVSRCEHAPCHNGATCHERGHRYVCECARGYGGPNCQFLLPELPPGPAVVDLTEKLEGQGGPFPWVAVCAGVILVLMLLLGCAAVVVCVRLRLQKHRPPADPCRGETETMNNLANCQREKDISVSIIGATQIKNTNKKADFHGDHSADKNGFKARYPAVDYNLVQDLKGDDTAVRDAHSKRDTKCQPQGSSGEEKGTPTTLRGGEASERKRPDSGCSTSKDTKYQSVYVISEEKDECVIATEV
UniProt Q9QYE5, residues 24-1247: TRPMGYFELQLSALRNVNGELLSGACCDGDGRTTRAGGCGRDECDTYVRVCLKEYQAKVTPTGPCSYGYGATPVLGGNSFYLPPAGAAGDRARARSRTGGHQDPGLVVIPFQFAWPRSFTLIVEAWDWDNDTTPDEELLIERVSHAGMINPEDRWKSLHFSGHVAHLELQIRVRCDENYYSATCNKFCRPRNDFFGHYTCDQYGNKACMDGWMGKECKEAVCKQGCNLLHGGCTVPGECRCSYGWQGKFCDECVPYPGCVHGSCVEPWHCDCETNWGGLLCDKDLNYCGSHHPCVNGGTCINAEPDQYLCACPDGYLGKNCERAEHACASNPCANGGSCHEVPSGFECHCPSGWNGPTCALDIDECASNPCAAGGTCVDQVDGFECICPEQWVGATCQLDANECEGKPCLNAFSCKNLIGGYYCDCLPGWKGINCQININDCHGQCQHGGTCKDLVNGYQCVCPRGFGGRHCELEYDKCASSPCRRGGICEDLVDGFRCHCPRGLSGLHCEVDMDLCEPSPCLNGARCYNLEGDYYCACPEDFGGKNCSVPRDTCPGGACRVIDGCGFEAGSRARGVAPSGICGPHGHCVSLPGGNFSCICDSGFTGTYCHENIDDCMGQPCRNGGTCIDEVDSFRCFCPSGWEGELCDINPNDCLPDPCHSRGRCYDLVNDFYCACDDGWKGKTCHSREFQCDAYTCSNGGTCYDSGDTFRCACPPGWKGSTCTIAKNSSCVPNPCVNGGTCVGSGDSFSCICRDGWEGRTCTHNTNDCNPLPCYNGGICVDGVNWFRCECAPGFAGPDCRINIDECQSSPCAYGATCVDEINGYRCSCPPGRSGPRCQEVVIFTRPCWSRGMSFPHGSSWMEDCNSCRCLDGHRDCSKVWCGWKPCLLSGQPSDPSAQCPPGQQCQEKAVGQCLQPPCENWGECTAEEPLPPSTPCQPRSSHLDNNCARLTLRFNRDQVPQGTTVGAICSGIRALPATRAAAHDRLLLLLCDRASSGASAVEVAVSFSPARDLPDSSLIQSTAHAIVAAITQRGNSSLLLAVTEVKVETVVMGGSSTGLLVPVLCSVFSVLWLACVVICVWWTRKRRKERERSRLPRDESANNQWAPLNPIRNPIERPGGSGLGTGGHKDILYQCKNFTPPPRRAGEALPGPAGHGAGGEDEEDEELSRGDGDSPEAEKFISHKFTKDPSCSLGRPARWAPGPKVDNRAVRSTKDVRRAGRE
UniProt P51784: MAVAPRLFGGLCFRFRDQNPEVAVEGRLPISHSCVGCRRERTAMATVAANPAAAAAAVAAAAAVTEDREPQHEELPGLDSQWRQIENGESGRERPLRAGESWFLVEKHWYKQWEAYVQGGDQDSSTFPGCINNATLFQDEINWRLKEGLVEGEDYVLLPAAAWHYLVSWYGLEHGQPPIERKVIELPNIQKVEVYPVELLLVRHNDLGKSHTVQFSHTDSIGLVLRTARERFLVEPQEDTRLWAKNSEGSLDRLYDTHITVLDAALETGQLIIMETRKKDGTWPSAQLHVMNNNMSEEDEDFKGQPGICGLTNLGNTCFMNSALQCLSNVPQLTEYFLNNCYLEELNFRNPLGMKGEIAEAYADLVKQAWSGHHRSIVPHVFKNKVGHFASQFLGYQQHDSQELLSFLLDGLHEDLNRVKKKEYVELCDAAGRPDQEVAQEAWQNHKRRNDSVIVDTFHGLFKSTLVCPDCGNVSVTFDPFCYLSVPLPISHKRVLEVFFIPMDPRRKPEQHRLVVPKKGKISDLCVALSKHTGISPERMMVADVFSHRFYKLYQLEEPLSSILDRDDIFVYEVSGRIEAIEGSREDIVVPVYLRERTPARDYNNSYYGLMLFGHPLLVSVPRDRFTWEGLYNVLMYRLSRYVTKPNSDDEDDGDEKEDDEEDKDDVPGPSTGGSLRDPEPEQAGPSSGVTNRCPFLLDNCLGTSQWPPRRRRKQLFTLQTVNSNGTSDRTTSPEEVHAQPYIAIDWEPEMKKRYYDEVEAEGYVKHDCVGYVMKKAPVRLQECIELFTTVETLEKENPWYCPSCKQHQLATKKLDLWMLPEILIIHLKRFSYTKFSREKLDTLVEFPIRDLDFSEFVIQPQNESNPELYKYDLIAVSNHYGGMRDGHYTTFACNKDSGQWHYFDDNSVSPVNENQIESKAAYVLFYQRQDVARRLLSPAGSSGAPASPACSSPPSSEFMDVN
UniProt Q99K46: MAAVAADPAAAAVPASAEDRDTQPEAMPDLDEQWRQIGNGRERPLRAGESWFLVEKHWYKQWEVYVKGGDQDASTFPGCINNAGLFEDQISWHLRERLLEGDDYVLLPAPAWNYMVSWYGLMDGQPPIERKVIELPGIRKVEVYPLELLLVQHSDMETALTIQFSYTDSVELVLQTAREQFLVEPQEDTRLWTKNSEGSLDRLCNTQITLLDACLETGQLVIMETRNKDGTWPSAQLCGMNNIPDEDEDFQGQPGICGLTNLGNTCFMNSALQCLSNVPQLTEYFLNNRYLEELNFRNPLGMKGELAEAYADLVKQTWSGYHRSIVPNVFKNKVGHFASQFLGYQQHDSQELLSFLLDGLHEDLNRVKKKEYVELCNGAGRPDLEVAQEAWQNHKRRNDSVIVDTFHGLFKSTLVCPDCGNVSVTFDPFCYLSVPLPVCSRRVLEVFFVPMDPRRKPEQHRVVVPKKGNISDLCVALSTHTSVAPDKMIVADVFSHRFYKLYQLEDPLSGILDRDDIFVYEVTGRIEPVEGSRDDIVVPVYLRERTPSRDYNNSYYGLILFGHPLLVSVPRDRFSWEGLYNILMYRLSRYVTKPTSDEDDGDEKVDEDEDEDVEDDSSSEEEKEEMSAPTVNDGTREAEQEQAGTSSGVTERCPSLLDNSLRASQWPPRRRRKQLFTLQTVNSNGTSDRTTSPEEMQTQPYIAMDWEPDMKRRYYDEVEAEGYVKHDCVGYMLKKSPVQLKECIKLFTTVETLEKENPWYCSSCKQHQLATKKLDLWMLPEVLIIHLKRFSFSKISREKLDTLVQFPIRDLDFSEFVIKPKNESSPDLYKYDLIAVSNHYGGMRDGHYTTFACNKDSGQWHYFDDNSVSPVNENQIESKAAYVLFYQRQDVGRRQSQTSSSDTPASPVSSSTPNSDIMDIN

How the values were obtained:
JAG2-Myc = JAG2-Myc (UniProt Q9Y219); test: co-IP; tagged proteins co-transfected into HEK293T cells for 72 h; cell lysates precipitated with anti-myc or anti-Flag beads followed by immunoblotting; input and IgG as controls
myc-tagged DLL1 = myc-tagged DLL1 (UniProt O00548); test: as above
[1] = target: JAG2 (mouse spleen tissue) (mouse (endogenous in spleen tissue)) (UniProt Q9QYE5); test: co-IP; mouse spleen tissue; antibody overnight at 4 °C, protein A/G beads, Western blot

binding (JAG2-Myc) | binding (myc-tagged DLL1) | binding [1] | Substance
binds | binds |  | Flag-tagged Usp11 (from UniProt P51784 1-963) (enzyme)
 |  | binds | Usp11 (mouse spleen tissue) (from UniProt Q99K46 1-921) (enzyme)
